Results: the supplement of paper PMC6411743
± gives the standard deviation of the averaged measurements. The list shows a part of the results, in another mix than the full data.

Protein sequences, listed by entry. Tags and fused reporters are not part of them. Lines headed by an entry give the natural chain unless they say otherwise; changes in a name come on top.
UniProt Q8TAG9: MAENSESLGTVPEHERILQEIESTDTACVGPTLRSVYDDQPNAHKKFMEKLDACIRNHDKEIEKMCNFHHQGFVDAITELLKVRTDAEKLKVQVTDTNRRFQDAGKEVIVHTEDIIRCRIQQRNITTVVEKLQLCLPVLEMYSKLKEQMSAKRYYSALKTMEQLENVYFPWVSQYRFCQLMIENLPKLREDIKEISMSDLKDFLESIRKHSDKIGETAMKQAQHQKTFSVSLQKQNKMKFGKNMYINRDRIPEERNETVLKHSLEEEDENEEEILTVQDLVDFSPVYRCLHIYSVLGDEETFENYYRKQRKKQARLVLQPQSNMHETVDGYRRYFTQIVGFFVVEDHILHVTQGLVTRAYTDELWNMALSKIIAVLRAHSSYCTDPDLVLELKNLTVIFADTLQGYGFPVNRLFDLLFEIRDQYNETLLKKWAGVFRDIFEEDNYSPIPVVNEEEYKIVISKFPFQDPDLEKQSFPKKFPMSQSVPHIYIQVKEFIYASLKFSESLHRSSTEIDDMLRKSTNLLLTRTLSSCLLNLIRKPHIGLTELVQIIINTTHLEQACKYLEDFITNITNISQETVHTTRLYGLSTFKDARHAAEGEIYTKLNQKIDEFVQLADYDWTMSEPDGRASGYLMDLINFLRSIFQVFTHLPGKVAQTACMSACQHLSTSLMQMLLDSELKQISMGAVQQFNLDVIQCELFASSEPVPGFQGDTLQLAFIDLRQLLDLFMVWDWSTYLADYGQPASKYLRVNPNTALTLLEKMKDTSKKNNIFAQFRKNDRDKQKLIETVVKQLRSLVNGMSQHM
UniProt P29558: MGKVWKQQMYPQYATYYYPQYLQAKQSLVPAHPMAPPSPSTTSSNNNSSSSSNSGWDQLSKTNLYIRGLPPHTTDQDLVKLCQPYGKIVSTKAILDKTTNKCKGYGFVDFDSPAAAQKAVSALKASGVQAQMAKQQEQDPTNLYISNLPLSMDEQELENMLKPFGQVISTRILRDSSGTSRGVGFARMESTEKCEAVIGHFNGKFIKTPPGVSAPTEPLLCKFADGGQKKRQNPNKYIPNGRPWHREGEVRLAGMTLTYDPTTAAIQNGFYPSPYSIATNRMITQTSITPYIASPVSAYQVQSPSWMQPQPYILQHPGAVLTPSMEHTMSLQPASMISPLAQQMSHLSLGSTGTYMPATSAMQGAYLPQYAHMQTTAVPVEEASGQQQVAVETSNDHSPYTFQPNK
UniProt Q14562: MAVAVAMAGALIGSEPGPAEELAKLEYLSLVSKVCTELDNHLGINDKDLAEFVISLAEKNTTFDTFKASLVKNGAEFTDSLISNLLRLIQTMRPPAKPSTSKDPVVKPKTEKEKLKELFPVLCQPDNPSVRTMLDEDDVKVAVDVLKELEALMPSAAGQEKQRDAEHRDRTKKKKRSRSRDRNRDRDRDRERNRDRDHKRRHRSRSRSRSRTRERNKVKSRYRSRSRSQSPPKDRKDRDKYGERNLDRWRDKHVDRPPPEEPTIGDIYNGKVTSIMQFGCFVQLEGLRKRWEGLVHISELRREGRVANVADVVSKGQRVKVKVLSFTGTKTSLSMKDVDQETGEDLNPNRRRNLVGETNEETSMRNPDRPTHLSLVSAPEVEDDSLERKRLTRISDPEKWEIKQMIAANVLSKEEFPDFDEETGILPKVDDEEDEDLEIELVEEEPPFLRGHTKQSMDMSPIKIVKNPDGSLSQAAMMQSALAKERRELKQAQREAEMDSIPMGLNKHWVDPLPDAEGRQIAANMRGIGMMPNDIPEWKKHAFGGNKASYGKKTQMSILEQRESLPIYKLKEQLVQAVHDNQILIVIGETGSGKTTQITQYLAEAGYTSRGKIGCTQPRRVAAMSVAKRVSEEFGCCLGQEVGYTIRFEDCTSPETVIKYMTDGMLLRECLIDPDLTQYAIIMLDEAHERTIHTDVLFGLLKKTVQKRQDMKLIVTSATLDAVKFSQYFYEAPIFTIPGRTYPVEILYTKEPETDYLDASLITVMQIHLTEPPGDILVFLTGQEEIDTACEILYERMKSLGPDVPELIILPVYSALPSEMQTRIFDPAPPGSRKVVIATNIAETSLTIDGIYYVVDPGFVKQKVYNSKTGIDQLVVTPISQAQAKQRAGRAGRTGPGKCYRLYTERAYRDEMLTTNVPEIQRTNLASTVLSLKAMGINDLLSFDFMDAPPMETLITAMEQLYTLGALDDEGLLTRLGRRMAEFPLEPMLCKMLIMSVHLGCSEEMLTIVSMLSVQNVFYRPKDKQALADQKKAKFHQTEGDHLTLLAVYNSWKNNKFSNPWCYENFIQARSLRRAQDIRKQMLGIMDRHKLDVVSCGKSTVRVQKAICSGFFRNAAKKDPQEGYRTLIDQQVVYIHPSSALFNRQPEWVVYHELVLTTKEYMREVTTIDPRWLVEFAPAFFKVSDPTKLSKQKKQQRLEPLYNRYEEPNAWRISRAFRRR
UniProt P14635, whole entry: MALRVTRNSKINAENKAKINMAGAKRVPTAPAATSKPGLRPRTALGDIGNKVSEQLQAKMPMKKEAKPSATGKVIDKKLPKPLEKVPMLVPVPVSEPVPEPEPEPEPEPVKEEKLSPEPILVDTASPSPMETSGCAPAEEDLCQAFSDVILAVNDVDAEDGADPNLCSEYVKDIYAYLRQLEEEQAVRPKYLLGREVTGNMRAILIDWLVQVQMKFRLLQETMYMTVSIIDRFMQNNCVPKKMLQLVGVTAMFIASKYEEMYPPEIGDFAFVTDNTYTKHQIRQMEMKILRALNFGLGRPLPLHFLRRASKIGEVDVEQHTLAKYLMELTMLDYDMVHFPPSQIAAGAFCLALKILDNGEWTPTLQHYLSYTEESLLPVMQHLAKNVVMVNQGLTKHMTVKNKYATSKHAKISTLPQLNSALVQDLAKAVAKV
UniProt P78406: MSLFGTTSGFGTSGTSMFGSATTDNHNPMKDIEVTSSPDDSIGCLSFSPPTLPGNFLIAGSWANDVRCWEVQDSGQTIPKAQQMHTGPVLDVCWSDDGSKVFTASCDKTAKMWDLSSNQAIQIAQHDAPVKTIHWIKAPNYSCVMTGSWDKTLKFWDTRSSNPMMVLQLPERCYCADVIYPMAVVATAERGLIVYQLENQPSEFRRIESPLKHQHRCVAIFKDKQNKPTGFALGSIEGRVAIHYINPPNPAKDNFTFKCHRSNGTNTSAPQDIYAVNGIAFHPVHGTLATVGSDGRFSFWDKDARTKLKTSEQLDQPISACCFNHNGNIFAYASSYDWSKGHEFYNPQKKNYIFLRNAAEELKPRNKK
UniProt Q8NCG7: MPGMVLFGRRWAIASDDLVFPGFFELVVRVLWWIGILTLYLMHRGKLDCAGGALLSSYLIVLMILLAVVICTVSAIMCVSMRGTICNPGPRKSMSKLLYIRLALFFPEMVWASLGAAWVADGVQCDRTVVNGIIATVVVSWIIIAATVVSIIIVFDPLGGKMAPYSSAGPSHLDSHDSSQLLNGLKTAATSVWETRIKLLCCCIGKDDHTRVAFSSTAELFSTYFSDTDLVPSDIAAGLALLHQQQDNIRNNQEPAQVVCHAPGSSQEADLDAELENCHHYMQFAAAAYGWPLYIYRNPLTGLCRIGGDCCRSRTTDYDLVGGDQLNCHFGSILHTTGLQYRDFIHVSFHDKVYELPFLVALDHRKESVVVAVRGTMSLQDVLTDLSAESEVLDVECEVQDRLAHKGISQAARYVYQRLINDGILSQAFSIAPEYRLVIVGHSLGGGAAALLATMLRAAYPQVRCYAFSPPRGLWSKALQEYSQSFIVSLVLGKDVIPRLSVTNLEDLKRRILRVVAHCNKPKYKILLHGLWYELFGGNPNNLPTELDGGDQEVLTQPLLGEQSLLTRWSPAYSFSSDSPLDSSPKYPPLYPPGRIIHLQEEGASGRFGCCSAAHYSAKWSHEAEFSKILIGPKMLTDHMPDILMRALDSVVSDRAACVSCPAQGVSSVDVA
UniProt Q9Y3C0: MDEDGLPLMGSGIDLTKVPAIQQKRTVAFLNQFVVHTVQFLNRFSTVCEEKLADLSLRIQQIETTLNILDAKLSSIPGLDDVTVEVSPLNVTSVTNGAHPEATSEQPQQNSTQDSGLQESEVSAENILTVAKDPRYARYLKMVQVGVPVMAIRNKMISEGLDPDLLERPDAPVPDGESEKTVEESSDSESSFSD
UniProt Q96RT7, whole entry: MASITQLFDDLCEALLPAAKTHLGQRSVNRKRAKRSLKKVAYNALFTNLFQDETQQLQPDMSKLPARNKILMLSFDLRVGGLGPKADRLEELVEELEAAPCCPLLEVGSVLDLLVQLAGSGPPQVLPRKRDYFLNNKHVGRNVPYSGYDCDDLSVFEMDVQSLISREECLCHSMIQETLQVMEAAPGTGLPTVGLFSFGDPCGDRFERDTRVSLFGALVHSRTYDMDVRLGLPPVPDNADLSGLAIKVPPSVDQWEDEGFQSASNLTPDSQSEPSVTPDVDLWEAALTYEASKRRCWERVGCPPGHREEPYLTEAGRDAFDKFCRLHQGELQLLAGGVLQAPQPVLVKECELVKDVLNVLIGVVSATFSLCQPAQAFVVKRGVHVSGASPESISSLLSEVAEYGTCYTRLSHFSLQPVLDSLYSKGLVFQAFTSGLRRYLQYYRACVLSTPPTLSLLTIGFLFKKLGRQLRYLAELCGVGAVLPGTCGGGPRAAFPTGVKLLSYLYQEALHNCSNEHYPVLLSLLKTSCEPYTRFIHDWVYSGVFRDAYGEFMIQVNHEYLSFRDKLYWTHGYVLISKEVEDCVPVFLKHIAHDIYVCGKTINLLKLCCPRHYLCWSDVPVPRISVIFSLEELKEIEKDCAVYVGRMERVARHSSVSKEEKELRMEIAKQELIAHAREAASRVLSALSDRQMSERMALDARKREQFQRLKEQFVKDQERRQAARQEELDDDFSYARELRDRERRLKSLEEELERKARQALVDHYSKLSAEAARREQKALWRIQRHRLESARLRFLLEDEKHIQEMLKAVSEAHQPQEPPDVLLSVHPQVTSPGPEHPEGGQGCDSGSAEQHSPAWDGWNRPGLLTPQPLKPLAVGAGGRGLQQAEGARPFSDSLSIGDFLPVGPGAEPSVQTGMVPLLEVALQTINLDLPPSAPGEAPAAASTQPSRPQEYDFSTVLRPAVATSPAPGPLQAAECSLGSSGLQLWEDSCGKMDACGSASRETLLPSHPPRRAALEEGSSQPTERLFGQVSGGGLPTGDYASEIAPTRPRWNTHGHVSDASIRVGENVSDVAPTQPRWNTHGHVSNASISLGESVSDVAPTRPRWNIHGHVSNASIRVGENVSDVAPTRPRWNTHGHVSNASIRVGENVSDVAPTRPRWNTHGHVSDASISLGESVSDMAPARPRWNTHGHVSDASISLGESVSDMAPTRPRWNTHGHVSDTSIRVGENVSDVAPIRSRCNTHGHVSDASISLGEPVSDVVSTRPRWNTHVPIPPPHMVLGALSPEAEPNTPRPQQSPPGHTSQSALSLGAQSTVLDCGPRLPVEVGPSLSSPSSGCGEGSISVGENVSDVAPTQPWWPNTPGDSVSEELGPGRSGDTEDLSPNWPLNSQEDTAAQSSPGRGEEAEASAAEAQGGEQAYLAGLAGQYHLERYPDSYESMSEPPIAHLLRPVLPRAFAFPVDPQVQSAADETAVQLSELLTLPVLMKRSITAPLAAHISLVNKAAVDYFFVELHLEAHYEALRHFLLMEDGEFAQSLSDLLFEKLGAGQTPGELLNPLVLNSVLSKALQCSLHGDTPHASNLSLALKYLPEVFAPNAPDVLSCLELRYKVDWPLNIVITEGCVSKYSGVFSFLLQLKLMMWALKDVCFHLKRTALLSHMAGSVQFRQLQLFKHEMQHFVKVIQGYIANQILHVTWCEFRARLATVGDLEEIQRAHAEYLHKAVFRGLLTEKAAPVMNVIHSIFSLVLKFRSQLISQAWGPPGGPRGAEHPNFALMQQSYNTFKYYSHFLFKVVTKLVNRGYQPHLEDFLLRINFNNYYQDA
UniProt Q9H3F6: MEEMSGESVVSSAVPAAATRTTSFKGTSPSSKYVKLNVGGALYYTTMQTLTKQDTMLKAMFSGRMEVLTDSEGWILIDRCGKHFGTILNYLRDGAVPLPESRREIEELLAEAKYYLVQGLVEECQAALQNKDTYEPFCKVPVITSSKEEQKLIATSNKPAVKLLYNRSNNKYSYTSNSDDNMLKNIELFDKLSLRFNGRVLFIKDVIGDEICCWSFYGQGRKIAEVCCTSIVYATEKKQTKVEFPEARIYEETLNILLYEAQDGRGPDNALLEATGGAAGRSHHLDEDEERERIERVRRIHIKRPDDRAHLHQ
UniProt P48509: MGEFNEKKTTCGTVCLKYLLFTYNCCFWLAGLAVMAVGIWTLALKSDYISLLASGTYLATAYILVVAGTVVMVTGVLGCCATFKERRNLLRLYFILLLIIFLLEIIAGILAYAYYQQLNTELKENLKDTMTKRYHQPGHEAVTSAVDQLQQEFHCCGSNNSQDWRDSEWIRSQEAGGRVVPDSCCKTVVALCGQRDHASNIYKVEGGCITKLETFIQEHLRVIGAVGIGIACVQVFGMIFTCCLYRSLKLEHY

Compound: Nc1ncnc2c1ncn2[C@@H]1O[C@H](COP(=O)(O)OP(=O)(O)OP(=O)(O)O)[C@@H](O)[C@H]1O [adenosine triphosphate]
Assay: NP40-soluble protein abundance relative to vehicle (solubility fold change) (ratio); higher = more soluble protein in presence of ATP
Method in brief: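 Crude Jurkat lysate, prepared by Dounce homogenisation, was exposed to eight concentrations from 0.1 to 10 mM for 10 min at room temperature and then 3 min at 37 °C. Solubilisation used 0.8% NP40 with benzonase for 60 min at 4 °C, followed by ultracentrifugation and TMT labelling of the supernatant for LC-MS/MS. After vsn normalisation of intensities, each value is the fold change against the detergent-processed vehicle within each replicate, across three independent experiments.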

Target | NP40-soluble protein abundance (concentration: 1mM) | NP40-soluble protein abundance (concentration: 2mM) | NP40-soluble protein abundance (concentration: 4mM) | NP40-soluble protein abundance (concentration: 6mM) | NP40-soluble protein abundance (concentration: 8mM) | NP40-soluble protein abundance (concentration: 10mM)
E7EW84 and related entries (UniProt Q8TAG9) | 0.968 ± 0.047 | 0.967 ± 0.013 | 0.981 ± 0.097 | 0.947 ± 0.1 | 0.953 ± 0.045 | 1 ± 0.065
F6Y5H0 and related entries (UniProt P29558) | 0.95 ± 0.081 | 0.93 ± 0.022 | 0.89 ± 0.021 | 0.947 ± 0.085 | 0.915 ± 0.032 | 0.905 ± 0.025
F8W1T6 and related entries (UniProt Q15434) | 0.843 ± 0.082 | 0.846 ± 0.089 | 0.881 ± 0.043 | 0.904 ± 0.059 | 0.876 ± 0.089 | 0.929 ± 0.084
F5H658 and related entries (UniProt Q14562) | 1.32 ± 0.046 | 1.3 ± 0.059 | 1.41 ± 0.023 | 1.47 ± 0.042 | 1.57 ± 0.055 | 1.61 ± 0.1
E9PC90 and related entries (UniProt P14635) | 0.983 ± 0.12 | 1.02 ± 0.038 | 1.05 ± 0.071 | 1.06 ± 0.11 | 1.02 ± 0.054 | 1.01 ± 0.028
E9PRF4 and related entries (UniProt Q15047) | 1.01 ± 0.051 | 1.02 ± 0.057 | 0.99 ± 0.052 | 1.01 ± 0.064 | 0.974 ± 0.06 | 1.01 ± 0.077
E7EPN9 and related entries (UniProt Q9Y520) | 1.05 ± 0.094 | 1.09 ± 0.076 | 1.15 ± 0.089 | 1.3 ± 0.14 | 1.3 ± 0.08 | 1.42 ± 0.13
E9PQ57 and related entries (UniProt P78406) | 1.03 ± 0.05 | 1.05 ± 0.018 | 1.05 ± 0.02 | 1.1 ± 0.056 | 1.14 ± 0.041 | 1.17 ± 0.013
E7ET49 and related entries (UniProt Q8NCG7) | 0.998 ± 0.022 | 0.966 ± 0.055 | 1.01 ± 0.081 | 0.955 ± 0.036 | 0.922 ± 0.04 | 0.97 ± 0.057
F8W1A4 and related entries (UniProt P54819) | 0.952 ± 0.083 | 0.949 ± 0.029 | 0.919 ± 0.036 | 0.971 ± 0.026 | 0.917 ± 0.0099 | 0.895 ± 0.047
F5GZ97 and related entries (UniProt Q9Y3C0) | 0.927 ± 0.07 | 0.955 ± 0.012 | 0.924 ± 0.055 | 0.967 ± 0.037 | 0.886 ± 0.05 | 0.846 ± 0.066
E7EQL8 and related entries (UniProt Q96RT7) | 1 ± 0.15 | 1 ± 0.19 | 0.992 ± 0.17 | 1.1 ± 0.26 | 1.01 ± 0.16 | 1.08 ± 0.17
F5GWA4 and related entries (UniProt Q9H3F6) | 1.14 ± 0.087 | 1.1 ± 0.1 | 1.08 ± 0.1 | 1.06 ± 0.16 | 1.11 ± 0.048 | 1.03 ± 0.12
E9PMR4 and related entries (UniProt P48509) | 0.919 ± 0.1 | 0.928 ± 0.05 | 0.926 ± 0.044 | 0.921 ± 0.03 | 0.865 ± 0.057 | 0.876 ± 0.027
G3V1P3 and related entries (UniProt Q969J3+G3V1P3) | 0.956 ± 0.015 | 0.962 ± 0.022 | 0.941 ± 0.015 | 0.919 ± 0.072 | 0.942 ± 0.025 | 0.917 ± 0.067

Part of the list above, as a markdown table.

| Target | NP40-soluble protein abundance (concentration: 1mM) | NP40-soluble protein abundance (concentration: 2mM) | NP40-soluble protein abundance (concentration: 4mM) | NP40-soluble protein abundance (concentration: 6mM) | NP40-soluble protein abundance (concentration: 8mM) | NP40-soluble protein abundance (concentration: 10mM) |
| --- | --- | --- | --- | --- | --- | --- |
| E7EQL8 and related entries (UniProt Q96RT7) | 1 ± 0.15 | 1 ± 0.19 | 0.992 ± 0.17 | 1.1 ± 0.26 | 1.01 ± 0.16 | 1.08 ± 0.17 |
| F5GWA4 and related entries (UniProt Q9H3F6) | 1.14 ± 0.087 | 1.1 ± 0.1 | 1.08 ± 0.1 | 1.06 ± 0.16 | 1.11 ± 0.048 | 1.03 ± 0.12 |
